# Where a name gives a salt, the structure may show the parent alone. This is one part of the list. Most values lie at the level of the controls, where differences are scatter.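 Reh, a human leukemia cell line, is read out by flow cytometry as the median γH2AX antibody signal in S-phase cells; the score counts standard deviations from the median difference of each paired plate set. Scores above 2.5 were candidate hits; scores below -2 mark compounds lowering MK1775-induced damage.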
# System: Reh
# Test: Z' of S-phase gammaH2AX difference (drug + MK1775 minus drug alone) (Z-score); higher = stronger synergistic S-phase DNA damage with MK1775
# Conditions: MK1775 concentration 400 nM; first compound 10 µM; 4 h
row,Structure (SMILES),Z' of S-phase gammaH2AX difference (Z-score)
1,Cc1cc(O)c2c(c1)C(=O)c1cc(O)cc(O)c1C2=O [Emodin] + C=CCn1c(=O)c2cnc(Nc3ccc(N4CCN(C)CC4)cc3)nc2n1-c1cccc(C(C)(C)O)n1 [MK1775],inactive: -0.658
2,COC(=O)c1ccc2c(C(=Nc3ccc(N(C)C(=O)CN4CCN(C)CC4)cc3)c3ccccc3)c(O)[nH]c2c1 [BIBF1120 (Vargatef)] + C=CCn1c(=O)c2cnc(Nc3ccc(N4CCN(C)CC4)cc3)nc2n1-c1cccc(C(C)(C)O)n1 [MK1775],inactive: -0.31
3,CN(C)CCCN1c2ccccc2CCc2ccccc21 [Imipramine hydrochloride] + C=CCn1c(=O)c2cnc(Nc3ccc(N4CCN(C)CC4)cc3)nc2n1-c1cccc(C(C)(C)O)n1 [MK1775],inactive: -0.469
4,NC(CO)C(=O)NNCc1ccc(O)c(O)c1O (configuration not stated) [Benserazide hydrochloride] + C=CCn1c(=O)c2cnc(Nc3ccc(N4CCN(C)CC4)cc3)nc2n1-c1cccc(C(C)(C)O)n1 [MK1775],inactive: 0.611
5,CCCn1c(=O)c2[nH]c(-c3ccc(OCC(=O)Nc4ccc(C#N)cc4)cc3)nc2n(CCC)c1=O + C=CCn1c(=O)c2cnc(Nc3ccc(N4CCN(C)CC4)cc3)nc2n1-c1cccc(C(C)(C)O)n1 [MK1775],inactive: 1.22
6,O=C1C(SCCO)=C(SCCO)C(=O)c2ccccc21 + C=CCn1c(=O)c2cnc(Nc3ccc(N4CCN(C)CC4)cc3)nc2n1-c1cccc(C(C)(C)O)n1 [MK1775],inactive: -4.71
7,CC1(C)CCC2=C(O1)c1ccccc1C(=O)C2=O [beta-Lapachone] + C=CCn1c(=O)c2cnc(Nc3ccc(N4CCN(C)CC4)cc3)nc2n1-c1cccc(C(C)(C)O)n1 [MK1775],inactive: -1
8,S=C(NCc1ccc2c(c1)OCO2)N1CCN(c2ncnc3c2oc2ccccc23)CC1 [Amuvatinib (MP-470)] + C=CCn1c(=O)c2cnc(Nc3ccc(N4CCN(C)CC4)cc3)nc2n1-c1cccc(C(C)(C)O)n1 [MK1775],inactive: 0.602
9,Cc1c(CCOc2ccc(C(=O)O)cc2)c2cc(Cl)ccc2n1C(c1ccccc1)c1ccccc1 + C=CCn1c(=O)c2cnc(Nc3ccc(N4CCN(C)CC4)cc3)nc2n1-c1cccc(C(C)(C)O)n1 [MK1775],inactive: 0.0702
10,Cn1cnc([N+](=O)[O-])c1Sc1ncnc2[nH]cnc12 [Azathioprine] + C=CCn1c(=O)c2cnc(Nc3ccc(N4CCN(C)CC4)cc3)nc2n1-c1cccc(C(C)(C)O)n1 [MK1775],inactive: -0.14
11,"Cn1cnc([N+](=O)[O-])c1Sc1ncnc2[nH]cnc12 [Azathioprine (Azasan, Imuran)] + C=CCn1c(=O)c2cnc(Nc3ccc(N4CCN(C)CC4)cc3)nc2n1-c1cccc(C(C)(C)O)n1 [MK1775]",inactive: -0.154
12,COc1c2c(nc3ccccc13)OC(C(C)(O)CO)C2 (configuration not stated) [Dubinidine] + C=CCn1c(=O)c2cnc(Nc3ccc(N4CCN(C)CC4)cc3)nc2n1-c1cccc(C(C)(C)O)n1 [MK1775],inactive: 0.867
13,CC(C)C(=O)Nc1ccc([N+](=O)[O-])c(C(F)(F)F)c1 [Flutamide (Eulexin)] + C=CCn1c(=O)c2cnc(Nc3ccc(N4CCN(C)CC4)cc3)nc2n1-c1cccc(C(C)(C)O)n1 [MK1775],inactive: 0.0377
14,CC(C)C(=O)Nc1ccc([N+](=O)[O-])c(C(F)(F)F)c1 [Flutamide] + C=CCn1c(=O)c2cnc(Nc3ccc(N4CCN(C)CC4)cc3)nc2n1-c1cccc(C(C)(C)O)n1 [MK1775],inactive: -0.342
15,CCOC(=O)Nc1ccc(NCc2ccc(F)cc2)nc1N [Flupirtine maleate] + C=CCn1c(=O)c2cnc(Nc3ccc(N4CCN(C)CC4)cc3)nc2n1-c1cccc(C(C)(C)O)n1 [MK1775],inactive: 0.683
16,CC1COc2c(N3CCN(C)CC3)c(F)cc3c(=O)c(C(=O)O)cn1c23 (configuration not stated) [Ofloxacin] + C=CCn1c(=O)c2cnc(Nc3ccc(N4CCN(C)CC4)cc3)nc2n1-c1cccc(C(C)(C)O)n1 [MK1775],inactive: -0.805
17,O=C(O)/C=C/c1cnc[nH]1 [4-Imidazoleacrylic acid] + C=CCn1c(=O)c2cnc(Nc3ccc(N4CCN(C)CC4)cc3)nc2n1-c1cccc(C(C)(C)O)n1 [MK1775],inactive: 0.0429
18,CC(C)NCC(O)c1cc(O)cc(O)c1 (configuration not stated) [Metaproterenol hemisulfate] + C=CCn1c(=O)c2cnc(Nc3ccc(N4CCN(C)CC4)cc3)nc2n1-c1cccc(C(C)(C)O)n1 [MK1775],inactive: 1.54
19,"CC(=O)/C(C)=N/O [2,3-Butanedione monoxime] + C=CCn1c(=O)c2cnc(Nc3ccc(N4CCN(C)CC4)cc3)nc2n1-c1cccc(C(C)(C)O)n1 [MK1775]",inactive: -0.16

# Another view of some results above.
row	Structure (SMILES)	Z' of S-phase gammaH2AX difference (Z-score)
11	Cn1cnc([N+](=O)[O-])c1Sc1ncnc2[nH]cnc12 [Azathioprine (Azasan, Imuran)] + C=CCn1c(=O)c2cnc(Nc3ccc(N4CCN(C)CC4)cc3)nc2n1-c1cccc(C(C)(C)O)n1 [MK1775]	inactive: -0.154
12	COc1c2c(nc3ccccc13)OC(C(C)(O)CO)C2 (configuration not stated) [Dubinidine] + C=CCn1c(=O)c2cnc(Nc3ccc(N4CCN(C)CC4)cc3)nc2n1-c1cccc(C(C)(C)O)n1 [MK1775]	inactive: 0.867
13	CC(C)C(=O)Nc1ccc([N+](=O)[O-])c(C(F)(F)F)c1 [Flutamide (Eulexin)] + C=CCn1c(=O)c2cnc(Nc3ccc(N4CCN(C)CC4)cc3)nc2n1-c1cccc(C(C)(C)O)n1 [MK1775]	inactive: 0.0377
14	CC(C)C(=O)Nc1ccc([N+](=O)[O-])c(C(F)(F)F)c1 [Flutamide] + C=CCn1c(=O)c2cnc(Nc3ccc(N4CCN(C)CC4)cc3)nc2n1-c1cccc(C(C)(C)O)n1 [MK1775]	inactive: -0.342
15	CCOC(=O)Nc1ccc(NCc2ccc(F)cc2)nc1N [Flupirtine maleate] + C=CCn1c(=O)c2cnc(Nc3ccc(N4CCN(C)CC4)cc3)nc2n1-c1cccc(C(C)(C)O)n1 [MK1775]	inactive: 0.683
16	CC1COc2c(N3CCN(C)CC3)c(F)cc3c(=O)c(C(=O)O)cn1c23 (configuration not stated) [Ofloxacin] + C=CCn1c(=O)c2cnc(Nc3ccc(N4CCN(C)CC4)cc3)nc2n1-c1cccc(C(C)(C)O)n1 [MK1775]	inactive: -0.805
17	O=C(O)/C=C/c1cnc[nH]1 [4-Imidazoleacrylic acid] + C=CCn1c(=O)c2cnc(Nc3ccc(N4CCN(C)CC4)cc3)nc2n1-c1cccc(C(C)(C)O)n1 [MK1775]	inactive: 0.0429

# Later entries.

row,Structure (SMILES),Z' of S-phase gammaH2AX difference (Z-score)
1,O=[N+]([O-])c1cc2nc(O)c(O)nc2cc1[N+](=O)[O-] + C=CCn1c(=O)c2cnc(Nc3ccc(N4CCN(C)CC4)cc3)nc2n1-c1cccc(C(C)(C)O)n1 [MK1775],inactive: 0.658
2,CCCn1cnc2c1c(=O)n(CCCCC(C)=O)c(=O)n2C [Propentofylline] + C=CCn1c(=O)c2cnc(Nc3ccc(N4CCN(C)CC4)cc3)nc2n1-c1cccc(C(C)(C)O)n1 [MK1775],inactive: -0.0146
3,CCCCCCCCCCCCCCSCC(=O)O [Tetradecylthioacetic acid] + C=CCn1c(=O)c2cnc(Nc3ccc(N4CCN(C)CC4)cc3)nc2n1-c1cccc(C(C)(C)O)n1 [MK1775],inactive: 0.0354
4,CC(C)(CO)Cc1cc(C(C)(C)C)c(O)c(C(C)(C)C)c1 + C=CCn1c(=O)c2cnc(Nc3ccc(N4CCN(C)CC4)cc3)nc2n1-c1cccc(C(C)(C)O)n1 [MK1775],inactive: -0.294
5,O=C(O)CN(CCN(CC(=O)O)CC(=O)O)CCN(CC(=O)O)CC(=O)O [Diethylenetriaminepentaacetic acid] + C=CCn1c(=O)c2cnc(Nc3ccc(N4CCN(C)CC4)cc3)nc2n1-c1cccc(C(C)(C)O)n1 [MK1775],inactive: 0.755
6,C#CCN(C)CCCOc1ccc(Cl)cc1Cl [Clorgyline hydrochloride] + C=CCn1c(=O)c2cnc(Nc3ccc(N4CCN(C)CC4)cc3)nc2n1-c1cccc(C(C)(C)O)n1 [MK1775],inactive: -0.539
7,COc1ccc(CCNC[C@@H](O)c2ccc(O)cc2)cc1OC [R(-)-Denopamine] + C=CCn1c(=O)c2cnc(Nc3ccc(N4CCN(C)CC4)cc3)nc2n1-c1cccc(C(C)(C)O)n1 [MK1775],inactive: -1.83
8,CN/C(=N\c1ccc(C2=NNC(=O)CC2C)cc1)NC#N (configuration not stated) + C=CCn1c(=O)c2cnc(Nc3ccc(N4CCN(C)CC4)cc3)nc2n1-c1cccc(C(C)(C)O)n1 [MK1775],inactive: -0.0291
9,COc1ccccc1N1CCN(CCCNc2cc(=O)n(C)c(=O)n2C)CC1 [Urapidil hydrochloride] + C=CCn1c(=O)c2cnc(Nc3ccc(N4CCN(C)CC4)cc3)nc2n1-c1cccc(C(C)(C)O)n1 [MK1775],inactive: 0.722
10,O=C(CCCN1CCC(O)(c2cccc(C(F)(F)F)c2)CC1)c1ccc(F)cc1 [Trifluperidol hydrochloride] + C=CCn1c(=O)c2cnc(Nc3ccc(N4CCN(C)CC4)cc3)nc2n1-c1cccc(C(C)(C)O)n1 [MK1775],inactive: -0.49
11,O=c1c2ccccc2nc2n1CCc1c-2[nH]c2ccccc12 [Rutaecarpine] + C=CCn1c(=O)c2cnc(Nc3ccc(N4CCN(C)CC4)cc3)nc2n1-c1cccc(C(C)(C)O)n1 [MK1775],inactive: -0.281
12,OC[C@H]1O[C@@H](n2cnc3c2N=CNC[C@H]3O)C[C@@H]1O [Pentostatin] + C=CCn1c(=O)c2cnc(Nc3ccc(N4CCN(C)CC4)cc3)nc2n1-c1cccc(C(C)(C)O)n1 [MK1775],inactive: 0.363
13,CN(C)c1ccccc1CN1CCCN(Cc2ccccc2N(C)C)C1c1ccncc1 + C=CCn1c(=O)c2cnc(Nc3ccc(N4CCN(C)CC4)cc3)nc2n1-c1cccc(C(C)(C)O)n1 [MK1775],inactive: 0.388
14,Oc1cc2c(c(Cl)c1O)CCNCC2c1ccccc1 (configuration not stated) [(?)-6-Chloro-PB hydrobromide] + C=CCn1c(=O)c2cnc(Nc3ccc(N4CCN(C)CC4)cc3)nc2n1-c1cccc(C(C)(C)O)n1 [MK1775],inactive: -0.00932
15,COCC(=O)O[C@]1(CCN(C)CCCc2nc3ccccc3[nH]2)CCc2cc(F)ccc2[C@@H]1C(C)C [Mibefradil dihydrochloride] + C=CCn1c(=O)c2cnc(Nc3ccc(N4CCN(C)CC4)cc3)nc2n1-c1cccc(C(C)(C)O)n1 [MK1775],inactive: -0.718
16,O=C(O)CCCCC1CCSS1 (stereo not drawn) [(?)-alpha-Lipoic Acid] + C=CCn1c(=O)c2cnc(Nc3ccc(N4CCN(C)CC4)cc3)nc2n1-c1cccc(C(C)(C)O)n1 [MK1775],inactive: 0.0988
17,CCCCCCCCCCCCCCCCCC(=O)NCC(COP(=O)([O-])OCC[N+](C)(C)C)OCC (racemic) [rac-2-Ethoxy-3-octadecanamido-1-propylphosphocholine] + C=CCn1c(=O)c2cnc(Nc3ccc(N4CCN(C)CC4)cc3)nc2n1-c1cccc(C(C)(C)O)n1 [MK1775],inactive: -0.163
18,C=CCn1c(=O)c2cnc(Nc3ccc(N4CCN(C)CC4)cc3)nc2n1-c1cccc(C(C)(C)O)n1 + C=CCn1c(=O)c2cnc(Nc3ccc(N4CCN(C)CC4)cc3)nc2n1-c1cccc(C(C)(C)O)n1 [MK1775],inactive: 0.394
